From article PMC3561454
These are yes or no findings as the source states them, for the method shown. Binding seen in cells or lysates may run through a third protein. Where a sequence is shown, tags or fusion partners need not be part of it.

By UniProt entry, the sequences of proteins in these tests, tags left out.
UniProt P41240: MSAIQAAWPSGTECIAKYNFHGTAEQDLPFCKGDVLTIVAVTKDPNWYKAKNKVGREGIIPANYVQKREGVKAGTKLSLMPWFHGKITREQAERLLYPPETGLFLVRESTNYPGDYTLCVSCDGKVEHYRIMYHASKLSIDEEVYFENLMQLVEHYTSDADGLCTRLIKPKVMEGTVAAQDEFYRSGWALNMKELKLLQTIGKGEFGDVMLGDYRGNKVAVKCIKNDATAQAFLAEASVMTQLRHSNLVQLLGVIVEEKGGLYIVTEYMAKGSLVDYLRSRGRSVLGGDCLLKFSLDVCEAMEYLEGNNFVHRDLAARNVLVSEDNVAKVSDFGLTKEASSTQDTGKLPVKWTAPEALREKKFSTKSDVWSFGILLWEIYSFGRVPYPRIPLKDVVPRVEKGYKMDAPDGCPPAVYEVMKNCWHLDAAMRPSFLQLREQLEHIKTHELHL

Target: T1, GFP-p140Cap double mutant (p140 EPLY/FA, EGLY/FA) (human) (UniProt Q9C0H9)
T1 sequence: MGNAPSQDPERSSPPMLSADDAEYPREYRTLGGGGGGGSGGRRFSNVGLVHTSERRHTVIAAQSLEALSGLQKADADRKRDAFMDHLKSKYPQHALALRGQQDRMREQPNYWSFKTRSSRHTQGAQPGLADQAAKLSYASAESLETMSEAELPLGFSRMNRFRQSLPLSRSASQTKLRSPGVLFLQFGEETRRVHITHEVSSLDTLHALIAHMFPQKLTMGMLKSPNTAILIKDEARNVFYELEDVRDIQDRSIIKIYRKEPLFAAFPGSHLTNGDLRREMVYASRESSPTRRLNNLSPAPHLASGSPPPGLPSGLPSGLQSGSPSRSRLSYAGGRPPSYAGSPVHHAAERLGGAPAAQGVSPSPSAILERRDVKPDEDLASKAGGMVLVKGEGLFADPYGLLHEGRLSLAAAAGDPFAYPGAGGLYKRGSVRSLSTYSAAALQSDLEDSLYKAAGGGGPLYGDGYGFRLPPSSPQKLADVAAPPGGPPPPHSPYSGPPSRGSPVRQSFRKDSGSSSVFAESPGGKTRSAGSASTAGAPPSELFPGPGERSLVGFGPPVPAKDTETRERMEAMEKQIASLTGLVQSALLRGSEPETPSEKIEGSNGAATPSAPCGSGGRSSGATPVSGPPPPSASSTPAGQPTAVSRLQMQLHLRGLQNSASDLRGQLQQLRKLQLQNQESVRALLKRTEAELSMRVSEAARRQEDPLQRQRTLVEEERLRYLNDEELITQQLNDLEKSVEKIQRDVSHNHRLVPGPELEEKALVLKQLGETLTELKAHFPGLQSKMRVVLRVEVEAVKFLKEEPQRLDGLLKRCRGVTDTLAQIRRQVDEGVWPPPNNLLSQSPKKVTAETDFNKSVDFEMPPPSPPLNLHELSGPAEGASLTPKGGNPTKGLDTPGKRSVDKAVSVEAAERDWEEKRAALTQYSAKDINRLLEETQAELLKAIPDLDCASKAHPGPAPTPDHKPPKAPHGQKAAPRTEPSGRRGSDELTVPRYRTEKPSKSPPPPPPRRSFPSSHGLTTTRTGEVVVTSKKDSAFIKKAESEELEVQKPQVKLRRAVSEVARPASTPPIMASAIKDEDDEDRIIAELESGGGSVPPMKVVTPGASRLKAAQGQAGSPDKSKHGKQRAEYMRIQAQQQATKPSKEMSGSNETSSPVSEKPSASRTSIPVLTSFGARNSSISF
Assay: co-IP; extracts of transfected HEK-293 cells (1% Triton X-100 lysis buffer) incubated overnight at 4°C with Dynabeads cross-linked to p140Cap monoclonal antibody; blot for Csk; cells treated with 100 micromolar pervanadate for 5 min, or starved overnight and treated with 20% FBS for 0, 5, 15 min

## C-terminal Src kinase (Csk), endogenous (from UniProt P41240 1-450) (enzyme)
  binding: no binding
